Data source: PubChem BioAssay AID504808 (Drosophila RNAi Screening Center, 2011)
In all, the deposit lists about 21,000 reagents; this is a random part of those with a known target gene and a result. In the full data, 18 (0.084%) are marked active. 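Raw counts without plate normalisation, one of two replicates; the ratio scores behind the calls were not deposited.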 Not given: the amount of reagent, the time to read-out.

- Purpose: 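Genes whose loss lifts activity of an E2F-responsive reporter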 (primary screen)
- Cell system: Drosophila S2 cells
- Reagent: long dsRNA against Drosophila genes
- Read-out: 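Firefly luciferase driven by E2F sites, normalised to Renilla luciferase on the same minimal promoter, measured by plate reader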
- Scale: E2F firefly: higher = more E2F reporter activity; Renilla normaliser: higher = more normaliser reporter signal
- Active means: 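Called active if the normalised E2F reporter went up by over 50%; the cutoff is arbitrary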

Tom20 [DRSC10899]
- E2F firefly, rep 1: 69045
- Renilla normaliser, rep 1: 3997
- call: inactive

CG11679 [DRSC19415]
- E2F firefly, rep 1: 6923
- Renilla normaliser, rep 1: 828
- call: inactive

Ance-3 [DRSC02648]
- E2F firefly, rep 1: 1.12e5
- Renilla normaliser, rep 1: 4507
- call: inactive

Ance-3 [DRSC02649]
- E2F firefly, rep 1: 99658
- Renilla normaliser, rep 1: 3791
- call: inactive

Jheh3 [DRSC06533]
- E2F firefly, rep 1: 68915
- Renilla normaliser, rep 1: 3307
- call: inactive

Sfxn2 [DRSC10718]
- E2F firefly, rep 1: 1.39e5
- Renilla normaliser, rep 1: 6862
- call: inactive

Usp10 [DRSC08282]
- E2F firefly, rep 1: 74632
- Renilla normaliser, rep 1: 3182
- call: inactive

Usp10 [DRSC08373]
- E2F firefly, rep 1: 75035
- Renilla normaliser, rep 1: 3626
- call: inactive

CG43347 [DRSC17982]
- E2F firefly, rep 1: 77891
- Renilla normaliser, rep 1: 4251
- call: inactive

CG43347 [DRSC18446]
- E2F firefly, rep 1: 1.27e5
- Renilla normaliser, rep 1: 5747
- call: inactive

Smyd3 [DRSC17744]
- E2F firefly, rep 1: 1.05e5
- Renilla normaliser, rep 1: 4866
- call: inactive

bam [DRSC16907]
- E2F firefly, rep 1: 1.02e5
- Renilla normaliser, rep 1: 6522
- call: inactive

lbk [DRSC07178]
- E2F firefly, rep 1: 79566
- Renilla normaliser, rep 1: 3478
- call: inactive

btz [DRSC14566]
- E2F firefly, rep 1: 1634
- Renilla normaliser, rep 1: 820
- call: inactive

IFT52 [DRSC03271]
- E2F firefly, rep 1: 1.53e5
- Renilla normaliser, rep 1: 5260
- call: inactive

CG14301 [DRSC14780]
- E2F firefly, rep 1: 1.45e5
- Renilla normaliser, rep 1: 7862
- call: inactive

CG13998 [DRSC02330]
- E2F firefly, rep 1: 1.64e5
- Renilla normaliser, rep 1: 5749
- call: inactive

aqrs [DRSC14724]
- E2F firefly, rep 1: 1.31e5
- Renilla normaliser, rep 1: 7232
- call: inactive

Part of the list above, reformatted:
Target gene	dsRNA	E2F firefly, rep 1	Renilla normaliser, rep 1	call
Jheh3	DRSC06533	68915	3307	inactive
Sfxn2	DRSC10718	1.39e5	6862	inactive
Usp10	DRSC08282	74632	3182	inactive

Continued:
XRCC1 [DRSC18729]
- E2F firefly, rep 1: 8422
- Renilla normaliser, rep 1: 736
- call: inactive

CLS [DRSC15642]
- E2F firefly, rep 1: 1.09e5
- Renilla normaliser, rep 1: 5204
- call: inactive

Acyp2 [DRSC15336]
- E2F firefly, rep 1: 1.19e5
- Renilla normaliser, rep 1: 5963
- call: inactive

CG46298 [DRSC06222]
- E2F firefly, rep 1: 1.40e5
- Renilla normaliser, rep 1: 4761
- call: inactive

Vml [DRSC17695]
- E2F firefly, rep 1: 85244
- Renilla normaliser, rep 1: 2560
- call: inactive

Vml [DRSC18529]
- E2F firefly, rep 1: 1.16e5
- Renilla normaliser, rep 1: 5633
- call: inactive

Rbf2 [DRSC16816]
- E2F firefly, rep 1: 1.31e5
- Renilla normaliser, rep 1: 5706
- call: inactive

MED17 [DRSC16889]
- E2F firefly, rep 1: 56851
- Renilla normaliser, rep 1: 3076
- call: inactive

CG8128 [DRSC20084]
- E2F firefly, rep 1: 8567
- Renilla normaliser, rep 1: 780
- call: inactive

CG31960 [DRSC00281]
- E2F firefly, rep 1: 1.50e5
- Renilla normaliser, rep 1: 5676
- call: inactive
